Assay results taken from patent US11447496B2, “Nitrogen-containing fused heterocyclic ring compound and application thereof” (GUANGZHOU CHINARAY OPTOELECTRONIC MATERIALS LTD., priority 2016, dated 2022).

Test: OLED device test with the compound as host material (lifetime, luminous efficiency)
Details: relative to the value of RefOLED1, Ir(piq)2acac emitter, mass ratio 90:10
Procedure: 3. The effects of each of the nitrogen-containing fused heterocyclic compounds of Examples 1, 2, 3, 4, 6, 8, 11, and CBP as a host material of the organic electroluminescent device (OLED) on the luminous efficiency and lifetime values of the OLEDs were measured. The current-voltage (J-V) characteristics of the OLED devices are characterized by a characterization equipment, while the lifetime values of the OLED devices were recorded, and the lifetime is represented by T90@1000 nits which is relative to the value of RefOLED1. The specific process is as follows:
The preparation steps of the foregoing OLEDs are as follows:
(1) ITO (indium tin oxide) conductive glass substrates were cleaned using a solvent and treated by UV ozone; wherein the solvent is a mixture of chloroform, acetone and isopropanol in a mass ratio of 5:3:2;

Row | Structure (SMILES) | Lifetime (T90@1000 nits)
1 | CC1(C)c2ccccc2N(c2nc(-c3ccccc3)nc(-c3cccc4c3-c3ccccc3C43c4ccccc4-c4ccccc43)n2)c2ccc3c4ccccc4n(-c4ccccc4)c3c21 [Example 6] | 5.3
2 | [2H]c1cc2c3ccccc3n(-c3nc(-c4ccccc4)cc(-c4ccc5c(c4)-c4ccccc4C54c5ccccc5-c5ccccc54)n3)c2c2c3ccccc3n(-c3ccccc3)c12 [Example 11] | 9.8
3 | CC1(C)c2ccccc2-c2ccc3c4ccccc4n(-c4nc(-c5ccccc5)nc(-c5cccc6c5-c5ccccc5C65c6ccccc6-c6ccccc65)n4)c3c21 [Example 8] | 6.7
4 | c1ccc(-c2nc(-c3cccc4c3-c3ccccc3C43c4ccccc4-c4ccccc43)nc(-n3c4ccccc4c4cc5c6ccccc6n(-c6ccccc6)c5cc43)n2)cc1 [Example 2] | 10.2
5 | c1ccc(-c2nc(-c3cccc4c3-c3ccccc3C43c4ccccc4-c4ccccc43)nc(-n3c4ccccc4c4ccc5c6ccccc6n(-c6ccccc6)c5c43)n2)cc1 [Example 1] | 11.4
6 | c1ccc(-c2cc(-c3ccc4c(c3)-c3ccccc3C43c4ccccc4-c4ccccc43)nc(N3c4ccccc4Oc4ccc5c(c43)c3ccccc3n5-c3ccccc3)n2)cc1 [Example 4] | 3.2
7 | c1ccc(-c2nc(-c3cccc4c3-c3ccccc3C43c4ccccc4-c4ccccc43)nc(-n3c4ccccc4c4c5c6ccccc6n(-c6ccccc6)c5ccc43)n2)cc1 [Example 3] | 8.6
8 | c1ccc2c(c1)c1ccccc1n2-c1ccc(-c2ccc(-n3c4ccccc4c4ccccc43)cc2)cc1 [CBP, 4,4′-bis(9H-carbazol-9-yl)biphenyl, reference compound] | 1
